Measured values: the supplement of paper PMC10331698
± gives the standard deviation of the averaged measurements. Small differences around the control level are noise.

Assays:
Test in all cases: level (log10 ratio to DMSO vehicle control); higher = higher biomarker level / cell amount than vehicle control
[1] = compound: OCCC(F)(F)C(F)(F)C(F)(F)C(F)(F)C(F)(F)C(F)(F)C(F)(F)C(F)(F)F [8:2 Fluorotelomer alcohol]; conditions: 2200 nM; in DMSO
Method: (§1)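 BioMAP Diversity Plus panel of 12 human primary cell co-culture systems (3C, 4H, LPS, SAg, BT, BF4T, BE3C, CASM3C, HDF3CGF, KF3CT, MyoF, Mphg). Compounds were added 1 h before stimulation and left for 24 h (MyoF 48 h; BT 72 h for soluble read-outs or 6 d for IgG). Biomarkers were read by ELISA, cytotoxicity by SRB, PBMC viability and proliferation by Alamar Blue. Each well value was divided by the mean of 8 DMSO control wells on the same plate and log10 transformed; duplicate blinded samples were tested at 4 concentrations.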

[2] = compound: FC(F)(F)C(F)(F)C(F)(F)C(F)(F)C(F)(F)C(F)(F)C(F)(F)I [1-Iodopentadecafluoroheptane]; conditions: in DMSO
Method: as §1

[3] = compound: O=P(O)(O)CCC(F)(F)C(F)(F)C(F)(F)C(F)(F)C(F)(F)C(F)(F)C(F)(F)C(F)(F)F [((Perfluorooctyl)ethyl)phosphonic acid]; conditions: 2200 nM; in DMSO
Method: as §1

[4] = compound: O=C(O)C(F)(F)C(F)(F)OC(F)(F)F [Perfluoro-3-methoxypropanoic acid]; conditions: 2200 nM; in DMSO
Method: as §1

[5] = compound: O=S(=O)(Cl)C(F)(F)C(F)(F)C(F)(F)C(F)(F)C(F)(F)C(F)(F)C(F)(F)C(F)(F)F [Perfluoro-1-octanesulfonyl chloride]; conditions: 2200 nM; in DMSO
Method: as §1

[6] = compound: O=C(O)C(F)(F)OC(F)(F)C(F)(F)OC(F)(F)C(=O)O [Perfluoro-3,6-dioxaoctane-1,8-dioic acid]; conditions: 2200 nM; in DMSO
Method: as §1

Perfluoroundecanoic acid = compound: O=C(O)C(F)(F)C(F)(F)C(F)(F)C(F)(F)C(F)(F)C(F)(F)C(F)(F)C(F)(F)C(F)(F)C(F)(F)F [Perfluoroundecanoic acid]; conditions: in DMSO
Method: as §1

[7] = compound: O=C(O)C(F)(F)C(F)(F)C(F)(F)C(F)(F)C(F)(F)C(F)(F)C(F)(F)C(F)F [9-H-Perfluorononanoic acid]; conditions: 2200 nM; in DMSO
Method: as §1

Perfluorobutanoic acid = compound: O=C(O)C(F)(F)C(F)(F)C(F)(F)F [Perfluorobutanoic acid]; conditions: 2200 nM; in DMSO
Method: as §1

[8] = compound: OCC(F)(F)C(F)(F)C(F)(F)C(F)(F)C(F)(F)C(F)(F)C(F)(F)C(F)(F)C(F)(F)C(F)(F)C(F)(F)F [11:1 Fluorotelomer alcohol]; conditions: in DMSO
Method: as §1

[9] = compound: O=C(O)C(F)(F)OC(F)(F)C(F)(F)OC(F)(F)C(F)(F)C(F)(F)C(F)(F)F [Perfluoro-3,6-dioxadecanoic acid]; conditions: 2200 nM; in DMSO
Method: as §1

[10] = compound: O=C(O)C=CC(F)(C(F)(F)F)C(F)(F)F [3-(Perfluoroisopropyl)-2-propenoic acid]; conditions: in DMSO
Method: as §1

[11] = compound: C=CC(=O)OCC(F)(F)C(F)(F)C(F)(F)C(F)(F)COC(=O)C=C [1H,1H,6H,6H-Perfluorohexane-1,6-diol diacrylate]; conditions: 2200 nM; in DMSO
Method: as §1

[12] = compound: FC(F)C(F)(F)COCC1CO1 [((2,2,3,3-Tetrafluoropropoxy)methyl)oxirane]; conditions: 2200 nM; in DMSO
Method: as §1

Perfluoropropanoic acid = compound: O=C(O)C(F)(F)C(F)(F)F [Perfluoropropanoic acid]; conditions: 2200 nM; in DMSO
Method: as §1

[13] = compound: FC(F)(F)C(F)(F)C(F)(F)C(F)(F)C(F)(F)C(F)(F)C(F)(F)CCI [1-Iodo-1H,1H,2H,2H-perfluorononane]; conditions: in DMSO
Method: as §1

[14] = compound: C=C(C)C(=O)OCC(F)(F)C(F)(F)C(F)(F)F [2,2,3,3,4,4,4-Heptafluorobutyl methacrylate]; conditions: 2200 nM; in DMSO
Method: as §1

Perfluorooctanamide = compound: NC(=O)C(F)(F)C(F)(F)C(F)(F)C(F)(F)C(F)(F)C(F)(F)C(F)(F)F [Perfluorooctanamide]; conditions: 2200 nM; in DMSO
Method: as §1

Test System	level (log10) [1]	level (log10) ([2]; 740 nM)	level (log10) ([2]; 2200 nM)	level (log10) ([2]; 6700 nM)	level (log10) ([2]; 20000 nM)	level (log10) [3]	level (log10) [4]	level (log10) [5]	level (log10) [6]	level (log10) (Perfluoroundecanoic acid; 740 nM)	level (log10) (Perfluoroundecanoic acid; 2200 nM)	level (log10) [7]	level (log10) (Perfluorobutanoic acid)	level (log10) ([8]; 370 nM)	level (log10) ([8]; 1100 nM)	level (log10) ([8]; 3300 nM)	level (log10) ([8]; 10000 nM)	level (log10) [9]	level (log10) ([10]; 2200 nM)	level (log10) ([10]; 6700 nM)	level (log10) ([10]; 20000 nM)	level (log10) ([10]; 60000 nM)	level (log10) [11]	level (log10) [12]	level (log10) (Perfluoropropanoic acid)	level (log10) ([13]; 740 nM)	level (log10) ([13]; 2200 nM)	level (log10) ([13]; 6700 nM)	level (log10) ([13]; 20000 nM)	level (log10) [14]	level (log10) (Perfluorooctanamide)
SAg:CXCL8/IL-8	0.016 ± 0.088	0.0615 ± 0.11	0.023 ± 0.028	-0.034 ± 0.035	0.0055 ± 0.073	0.0375 ± 0.042	0.0075 ± 0.056	0.0095 ± 0.044	0.014 ± 0.054	0.051 ± 0.09	0.0335 ± 0.019	-0.0015 ± 0.054	0.0095 ± 0.0064	0.0405 ± 0.12	0.0365 ± 0.042	-0.0005 ± 0.0035	-0.121 ± 0.28	0.0115 ± 0.057	-0.0125 ± 0.0078	-0.0185 ± 0.005	-0.0015 ± 0.033	0.009 ± 0.028	0.0295 ± 0.1	0.011 ± 0.057	0.0255 ± 0.0035	0.013 ± 0.021	-0.01 ± 0.011	-0.0055 ± 0.019	0.004 ± 0.045	-0.0285 ± 0.14	-0.013 ± 0.011
BE3C:PAI-I	-0.0195 ± 0.011	-0.02 ± 0.011	-0.006 ± 0.024	-0.0185 ± 0.047	-0.0245 ± 0.037	0.013 ± 0.044	-0.028 ± 0.0099	0.0165 ± 0.03	-0.017 ± 0.033	-0.0715 ± 0.076	-0.073 ± 0.016	0.041 ± 0.055	-0.0095 ± 0.021	-0.029 ± 0.065	-0.045 ± 0.057	-0.0855 ± 0.054	-0.0555 ± 0.07	0.0185 ± 0.019	0.0005 ± 0.018	0.0105 ± 0.00071	-0.003 ± 0.0042	0.0065 ± 0.023	-0.036 ± 0.069	0.0035 ± 0.025	-0.0175 ± 0.00071	0.015 ± 0.051	-0.0165 ± 0.03	0.016 ± 0.0071	-0.01 ± 0.0099	-0.0395 ± 0.046	-0.0055 ± 0.015
